This data set can be described thus: general procedure: Boc solid-phase peptide synthesis; BOC-Phe esterified to 2% cross-linked polystyrene-divinylbenzene; DCCI with 1-hydroxybenzotriazole. Particulars: cyclisation step.

Regarding BOC-Hcys-Pro-Phe-Hcys-Sta-Leu-Phe-OCH3, the “final HPLC purity” value came to 98.2%.

These data come from patent publication US4477440A (Merck & Co., Inc., priority 1983, dated 1984).
